From paper PMC8131606
Results are given in words; binding and its absence hold for the method and conditions named. In cells and extracts the contact can be indirect. Some entries that bind do so weakly or less than the wild type.

Chains of the proteins cited; added tags and fusions are not shown. Residues count along the entry.
UniProt P31421, residues 19-872: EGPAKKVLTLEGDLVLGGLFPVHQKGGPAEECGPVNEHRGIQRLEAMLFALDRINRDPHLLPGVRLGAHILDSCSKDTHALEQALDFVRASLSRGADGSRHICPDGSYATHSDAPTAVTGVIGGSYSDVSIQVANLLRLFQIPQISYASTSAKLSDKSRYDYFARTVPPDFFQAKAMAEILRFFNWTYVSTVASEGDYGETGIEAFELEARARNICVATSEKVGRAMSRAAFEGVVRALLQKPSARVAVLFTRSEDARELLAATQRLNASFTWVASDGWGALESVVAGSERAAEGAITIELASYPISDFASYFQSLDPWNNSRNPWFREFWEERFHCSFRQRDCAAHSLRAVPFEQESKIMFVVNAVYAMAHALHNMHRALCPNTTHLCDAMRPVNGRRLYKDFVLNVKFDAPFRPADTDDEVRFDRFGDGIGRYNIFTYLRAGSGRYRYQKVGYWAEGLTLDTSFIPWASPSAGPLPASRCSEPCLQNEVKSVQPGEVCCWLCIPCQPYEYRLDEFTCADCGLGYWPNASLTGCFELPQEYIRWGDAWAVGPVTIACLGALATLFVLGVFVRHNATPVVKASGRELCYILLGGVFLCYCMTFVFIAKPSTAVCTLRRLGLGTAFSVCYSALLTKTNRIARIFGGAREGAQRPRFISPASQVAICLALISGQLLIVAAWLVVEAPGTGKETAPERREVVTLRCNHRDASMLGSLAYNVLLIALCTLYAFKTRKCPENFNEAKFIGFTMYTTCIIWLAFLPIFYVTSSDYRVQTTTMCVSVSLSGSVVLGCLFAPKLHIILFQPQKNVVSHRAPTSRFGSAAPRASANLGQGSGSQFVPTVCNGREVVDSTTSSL

Biological target: HA-SNAP-tagged metabotropic glutamate receptor 2 (UniProt P31421)
Assay: FRET or BRET; N-terminal HA-SNAP constructs on HEK293T cells, surface population labelled with membrane-impermeant SBG-JF549 and SBG-JF646 (1:3); donor recovery after acceptor bleaching

binding: binds
Substance: HA-SNAP-tagged metabotropic glutamate receptor 2 (from UniProt P31421 19-872)
